For the test, the target named is T1, 3×FLAG‐tagged TGB1 (TGB1–3×Flag), triple gene block 1 protein of barley stripe mosaic virus (barley stripe mosaic virus) (UniProt P04867).
T1 sequence: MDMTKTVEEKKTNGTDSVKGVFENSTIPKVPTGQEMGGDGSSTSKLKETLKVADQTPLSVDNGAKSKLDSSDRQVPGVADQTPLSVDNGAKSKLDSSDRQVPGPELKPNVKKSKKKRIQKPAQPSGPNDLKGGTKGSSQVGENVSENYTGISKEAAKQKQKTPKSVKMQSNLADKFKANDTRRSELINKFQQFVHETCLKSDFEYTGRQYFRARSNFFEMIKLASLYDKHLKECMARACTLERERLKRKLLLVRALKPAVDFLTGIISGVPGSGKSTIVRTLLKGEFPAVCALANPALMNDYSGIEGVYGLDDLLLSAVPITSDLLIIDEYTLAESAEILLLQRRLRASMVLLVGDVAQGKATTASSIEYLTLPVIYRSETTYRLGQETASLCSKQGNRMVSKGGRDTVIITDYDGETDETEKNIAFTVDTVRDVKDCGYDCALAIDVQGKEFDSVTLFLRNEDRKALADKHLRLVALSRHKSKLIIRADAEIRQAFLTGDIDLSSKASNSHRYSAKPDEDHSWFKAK
The test is described as follows: affinity purification with mass spectrometry; TGB1–3×Flag as bait, transiently expressed in N. benthamiana leaves; immunoprecipitation, then liquid chromatography–tandem mass spectrometry.

Results are given in words; binding and its absence hold for the method and conditions named. Binding seen in cells or lysates may run through a third protein. A yes stands for co-enrichment or nearness to the bait. Other partners may have been found. Sequences can lack the tags named with a protein.

For “Ariadne‐like protein 8 (ARI8), endogenous in N. benthamiana (enzyme)”, the binding entry was “binds”.

The record behind these values is PMC12667515.
